Usually AC50 stands for the midpoint of the concentration-response curve, whichever way the signal moves.

The list shows a part of the results. Further columns of the screen follow, without active or inactive calls. The list favours compounds with an active or inconclusive main result. Words in brackets tell the shape of the fitted curve; partial curves, single points and poor fits give uncertain potencies.

The test in a line: qHTS Assay to Find Inhibitors of Chronic Active B-Cell Receptor Signaling. The settings on record: ABC-DLBCL IkBa-CBG/CBR reporter, luminescence ratio (green luciferase fused to IkBa over red control in TMD8 lymphoma cells), 4 h. In a few lines: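 Concentration-response series (up to 46 uM) were applied to TMD8 dual-reporter cells for 4 h at 37C with doxycycline. Green/red ratio, after filter-overlap correction, defined %Activity; red signal alone was normalised to basal cells and zero luminescence.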

[1] abbreviates: measured here: CBR red luminescence, cell number.
Setting [2] is: measured here: IkBa-CBG green luminescence.

With `Cc1cccc(C(=O)Nc2cccc(C(=O)N/N=C/c3cccc(C)n3)c2)c1`, the AC50 under setting [1] was 3.16 µM [falling, single point].
`CCOC(=O)c1cc(-c2ccccc2)n(CCC(=O)Nc2ccc(C(F)(F)F)cc2)c1C`: under setting [1], the AC50 is 35.5 µM [falling, single point].
As for `O=C(NNc1nc2cc3c(cc2s1)OCO3)c1cccc(F)c1`, the AC50 under setting [1] is 20.6 µM [falling, single point].
On the same count and under the same terms, to `Cc1nn2c(NCCCn3ccnc3)cc(C(C)C)nc2c1-c1ccccc1` belongs 35.5 µM [falling, single point].
As to `Cc1nn(Cc2ccccc2Cl)c2sc(C(=O)OC3CCCC3=O)cc12` (stereo not drawn), the AC50 under setting [1] was 3.16 µM [rising, partial curve, poor fit].
Regarding `CCN(C(=O)CSc1nnc(-c2ccco2)n1C)c1c(N)n(Cc2ccccc2)c(=O)[nH]c1=O`, under setting [1], the AC50 was 4.11 µM [falling, partial curve, poor fit].
For the compound `[O-]/[N+](=C\c1ccc(F)cc1)c1ccccc1`, the AC50 under setting [1] was 29.1 µM [rising, single point].
As to `CC1CCN(S(=O)(=O)c2cccc(C(=O)NC3CCCC3)c2)CC1`, the AC50 under setting [1] is 35.5 µM [falling, partial curve, poor fit].
Regarding `CN(c1ncnc2c1c(-c1ccccc1)cn2-c1ccc(F)cc1)C1CCCCC1`, the AC50 under setting [1] is 35.5 µM [rising, single point].
In the case of `COc1ccc(NC(=O)c2ccccc2O)c(OC)c1`, the AC50 under setting [1] is 3.66 µM [falling, full curve].
Consider `CC(C)Nc1nc(Oc2ccc(=O)n(-c3ccccc3)n2)nc(N(C)C)n1`, for which the AC50 under setting [1] is 0.794 µM [rising, full curve, poor fit].
As for `O=C1CCCC/C1=C/Nc1cccc(C(F)(F)F)c1`, the AC50 under setting [1] was 17.8 µM [rising, partial curve, poor fit].
In the case of `C=CCNC(=O)C(C#N)c1nc2ccccc2nc1N1CCCCCC1` (stereo not drawn), under setting [1], the AC50 is 15.8 µM [falling, partial curve].
Regarding `Cc1nc(-c2cccs2)sc1C(=O)O`, under setting [1], the AC50 was 20 µM [falling, single point].
On to `Cc1ccccc1OCc1nc2ccccc2c(=O)n1/N=C/c1c[nH]c2ccccc12`, for which the AC50 under setting [1] is 29.1 µM [falling, single point].
Consider `CC(C)c1onc(C(=O)N2CCCCC2)c1[N+](=O)[O-]`, for which, under setting [1], the AC50 was 32.6 µM [rising, partial curve, poor fit].
Same read-out and setting: next, `CCOC(=O)c1sc(NC(=O)CSC(=S)N2CCOCC2)nc1C`: 5.01 µM [falling, partial curve, poor fit]; `O=C(NCCN1C(=O)S/C(=C\c2ccc(OC(F)F)cc2)C1=O)C1=COCCO1`: 16.4 µM [falling, partial curve, poor fit]; `Cc1cc(=O)n(C)c(=O)n1CCCCCN1CCCC1`: 3.66 µM [falling, full curve, poor fit].
Regarding `O=C(NCc1ccco1)C1CC2CCC1C2` (stereo not drawn), the AC50 under setting [1] is 0.517 µM [rising, full curve, poor fit].
Take `CCOC(=O)C1=C(N)Oc2ccc3ccccc3c2C1c1cccc(O)c1` (stereo not drawn): the AC50 was 22.4 µM [falling, single point] under setting [1] and 35.5 µM [rising, partial curve, poor fit] under setting [2].
As for `COc1ccc(CNC(=O)COc2ccc(C(=O)c3ccc(F)cc3)cc2)cc1`, the AC50 is, setting by setting: under setting [1], 5.17 µM [rising, full curve, poor fit]; under setting [2], 3.66 µM [falling, full curve, poor fit].
As for `O=C(CNC(=O)c1ccco1)NCC(=O)OCc1ccc(F)cc1`, under setting [1], the AC50 was 12.6 µM [rising, partial curve, poor fit].
Take `COc1cccc(NC(=O)c2ccc(C(=O)c3ccccc3)o2)c1`: under setting [1], the AC50 is 35.5 µM [falling, single point].
For `O=C(NCCCSc1ccccc1)c1cc(Br)ccc1O`, the AC50 under setting [1] was 0.708 µM [falling, full curve, poor fit].
On to `Cc1[nH]c(=O)[nH]c1CN1CCCCC1`, for which the concentration at half-maximal activity (AC50) under setting [1] was 25.1 µM [rising, partial curve, poor fit].
Still for that read-out and setting: next, `CCC1CCCCN1C(=O)COC(=O)c1cc(Br)ccc1Cl` (stereo not drawn): 14.1 µM [rising, partial curve, poor fit].
Turning to `CCCC1OC2CC3C4CCC5=CC(=O)C=CC5(C)C4C(O)CC3(C)C2(C(=O)O)O1` (stereo not drawn), the AC50 under setting [1] was 0.891 µM [rising, full curve, poor fit].
On the same count and under the same terms, to `COc1ccc(-c2nn(-c3ccccc3)cc2C#N)cc1` belongs 1.03 µM [rising, full curve, poor fit].
With `Cc1cc(C)cc(Nc2ccc(C(=O)O)cc2N)c1`, the AC50 under setting [1] is 0.517 µM [falling, full curve].
Take `CC(C)(C)C(=O)Nc1c(Br)c(C2CC2)nn1-c1ccccc1`: the AC50 under setting [1] is 2.82 µM [rising, partial curve, poor fit].
With `CCC(C)(C)C(=O)Nc1ncc(S(=O)(=O)c2ccc([N+](=O)[O-])cc2)s1`, under setting [1], the AC50 is 12.6 µM [falling, single point].
For the compound `CCc1ccc(CN(C)C(=O)c2cc(COc3cc(C)c(Cl)c(C)c3)on2)nc1`, the AC50 under setting [1] is 35.5 µM [falling, single point].
In the case of `CCN(C(=O)c1cnc(N2CCN(c3ncccn3)CC2)c2ccccc12)c1cccc(Cl)c1`, under setting [1], the AC50 was 10 µM [falling, partial curve].
As to `CC(C)Oc1ccccc1/C=N/NC(=O)C1CCCC1`, the AC50 under setting [1] is 1.41 µM [rising, full curve, poor fit].
For `CCOCC(=O)Nc1ccc(S(=O)(=O)N2CCC(c3nc4ccccc4[nH]3)CC2)cc1`, under setting [1], the AC50 was 9.2 µM [rising, partial curve, poor fit].
In the case of `Oc1oc(-c2ccco2)nc1C=Nc1cccc(Cl)c1`, the AC50 under setting [1] is 10 µM [falling, partial curve].
On to `CCOC(=O)c1cnn(CC2CCCCC2)c1N`, for which the AC50 under setting [1] is 35.5 µM [rising, partial curve, poor fit].
Take `O=c1c(N2CCN(c3cccc(C(F)(F)F)c3)CC2)csc2ccccc12`: under setting [1], the AC50 was 35.5 µM [falling, single point].
With `Cc1noc(C)c1COc1ccc(C(=O)NCc2ccccn2)cc1`, the AC50 under setting [1] was 0.082 µM [falling, full curve, poor fit].
For the compound `CSC1=NNC(c2ccc(C(C)(C)C)cc2)=NN1`, the AC50 under setting [1] was 1 µM [rising, full curve].
